This is an account of results in article doi:10.1101/2020.04.30.071365.

These are yes or no findings as the source states them, for the method shown. Binding seen in cells or lysates may run through a third protein. Some binding calls cover weakened binding; strength is not graded here. Sequences can lack the tags named with a protein.

What all share (assay): co-IP
For assay [1], the target named is T1, cyclin F(S621G)-flag (human) (UniProt P41002).
T1 sequence: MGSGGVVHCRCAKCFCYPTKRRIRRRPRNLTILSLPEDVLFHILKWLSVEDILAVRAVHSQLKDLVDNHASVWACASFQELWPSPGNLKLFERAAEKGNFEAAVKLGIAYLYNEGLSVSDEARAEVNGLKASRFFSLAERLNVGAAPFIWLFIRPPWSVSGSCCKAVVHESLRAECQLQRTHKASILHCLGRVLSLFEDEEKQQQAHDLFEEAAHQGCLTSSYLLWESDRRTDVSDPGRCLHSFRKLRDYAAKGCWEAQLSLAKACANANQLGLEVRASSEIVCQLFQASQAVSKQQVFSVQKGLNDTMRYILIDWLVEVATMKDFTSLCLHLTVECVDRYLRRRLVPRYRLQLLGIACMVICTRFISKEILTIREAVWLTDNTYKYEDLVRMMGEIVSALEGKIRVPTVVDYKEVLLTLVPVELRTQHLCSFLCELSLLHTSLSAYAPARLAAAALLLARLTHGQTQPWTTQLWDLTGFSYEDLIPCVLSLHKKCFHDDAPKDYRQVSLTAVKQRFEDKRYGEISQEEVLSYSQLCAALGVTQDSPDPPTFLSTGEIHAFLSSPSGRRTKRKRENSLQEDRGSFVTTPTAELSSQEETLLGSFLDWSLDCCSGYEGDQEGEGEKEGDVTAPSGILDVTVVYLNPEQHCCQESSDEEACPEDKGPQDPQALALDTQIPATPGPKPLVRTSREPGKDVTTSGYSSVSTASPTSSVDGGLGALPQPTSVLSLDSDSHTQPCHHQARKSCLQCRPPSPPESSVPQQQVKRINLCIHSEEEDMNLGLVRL

Assay [2] addresses T2, cyclin F(WT)-flag (human) (UniProt P41002).
T2 sequence: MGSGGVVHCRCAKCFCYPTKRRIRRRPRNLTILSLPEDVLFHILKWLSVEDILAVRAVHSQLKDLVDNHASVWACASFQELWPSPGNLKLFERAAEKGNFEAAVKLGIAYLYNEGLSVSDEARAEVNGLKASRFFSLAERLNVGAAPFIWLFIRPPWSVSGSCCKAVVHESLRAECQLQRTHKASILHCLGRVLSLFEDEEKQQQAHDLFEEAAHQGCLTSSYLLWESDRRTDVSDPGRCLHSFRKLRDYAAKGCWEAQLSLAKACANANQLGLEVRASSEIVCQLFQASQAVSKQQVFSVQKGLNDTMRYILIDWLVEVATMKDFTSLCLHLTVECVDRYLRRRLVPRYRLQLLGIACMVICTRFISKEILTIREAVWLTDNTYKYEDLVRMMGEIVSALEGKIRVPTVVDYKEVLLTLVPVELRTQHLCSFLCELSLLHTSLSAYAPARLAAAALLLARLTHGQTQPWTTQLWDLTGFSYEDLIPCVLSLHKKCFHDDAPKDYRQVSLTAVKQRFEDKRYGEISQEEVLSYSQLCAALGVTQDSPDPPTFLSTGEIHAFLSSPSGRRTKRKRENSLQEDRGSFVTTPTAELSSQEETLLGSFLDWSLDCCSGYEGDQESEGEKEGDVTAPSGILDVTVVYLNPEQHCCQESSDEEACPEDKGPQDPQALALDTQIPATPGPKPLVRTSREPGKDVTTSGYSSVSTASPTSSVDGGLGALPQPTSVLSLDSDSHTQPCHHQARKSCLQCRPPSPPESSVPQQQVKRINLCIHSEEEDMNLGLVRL

The target in a further assay is T3, RBM14-HA (UniProt Q96PK6).
T3 sequence: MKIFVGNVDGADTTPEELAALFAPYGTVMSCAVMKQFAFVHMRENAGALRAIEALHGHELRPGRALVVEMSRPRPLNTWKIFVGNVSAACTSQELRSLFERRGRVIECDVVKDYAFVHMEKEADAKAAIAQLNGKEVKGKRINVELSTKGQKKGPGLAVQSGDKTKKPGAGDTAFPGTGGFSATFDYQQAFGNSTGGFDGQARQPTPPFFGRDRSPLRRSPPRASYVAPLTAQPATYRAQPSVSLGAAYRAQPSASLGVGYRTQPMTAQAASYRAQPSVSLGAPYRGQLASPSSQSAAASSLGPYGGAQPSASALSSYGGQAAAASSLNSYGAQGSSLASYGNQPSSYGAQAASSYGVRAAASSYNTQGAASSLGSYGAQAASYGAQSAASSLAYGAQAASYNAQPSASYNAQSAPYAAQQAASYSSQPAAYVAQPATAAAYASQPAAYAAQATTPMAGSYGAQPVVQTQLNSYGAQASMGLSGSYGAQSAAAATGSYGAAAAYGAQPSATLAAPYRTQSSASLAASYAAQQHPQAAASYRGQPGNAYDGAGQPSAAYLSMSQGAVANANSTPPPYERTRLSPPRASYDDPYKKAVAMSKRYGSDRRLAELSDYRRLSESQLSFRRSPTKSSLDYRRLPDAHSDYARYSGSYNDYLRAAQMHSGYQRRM

B1: RBM14-HA (protein, UniProt Q96PK6 1-669)
chain: MKIFVGNVDGADTTPEELAALFAPYGTVMSCAVMKQFAFVHMRENAGALRAIEALHGHELRPGRALVVEMSRPRPLNTWKIFVGNVSAACTSQELRSLFERRGRVIECDVVKDYAFVHMEKEADAKAAIAQLNGKEVKGKRINVELSTKGQKKGPGLAVQSGDKTKKPGAGDTAFPGTGGFSATFDYQQAFGNSTGGFDGQARQPTPPFFGRDRSPLRRSPPRASYVAPLTAQPATYRAQPSVSLGAAYRAQPSASLGVGYRTQPMTAQAASYRAQPSVSLGAPYRGQLASPSSQSAAASSLGPYGGAQPSASALSSYGGQAAAASSLNSYGAQGSSLASYGNQPSSYGAQAASSYGVRAAASSYNTQGAASSLGSYGAQAASYGAQSAASSLAYGAQAASYNAQPSASYNAQSAPYAAQQAASYSSQPAAYVAQPATAAAYASQPAAYAAQATTPMAGSYGAQPVVQTQLNSYGAQASMGLSGSYGAQSAAAATGSYGAAAAYGAQPSATLAAPYRTQSSASLAASYAAQQHPQAAASYRGQPGNAYDGAGQPSAAYLSMSQGAVANANSTPPPYERTRLSPPRASYDDPYKKAVAMSKRYGSDRRLAELSDYRRLSESQLSFRRSPTKSSLDYRRLPDAHSDYARYSGSYNDYLRAAQMHSGYQRRM
Take B1: the binding entry in assay [1] and in assay [2] was “binds” each time.

B2: cyclin F(WT)-flag (protein, UniProt P41002 1-786)
chain: MGSGGVVHCRCAKCFCYPTKRRIRRRPRNLTILSLPEDVLFHILKWLSVEDILAVRAVHSQLKDLVDNHASVWACASFQELWPSPGNLKLFERAAEKGNFEAAVKLGIAYLYNEGLSVSDEARAEVNGLKASRFFSLAERLNVGAAPFIWLFIRPPWSVSGSCCKAVVHESLRAECQLQRTHKASILHCLGRVLSLFEDEEKQQQAHDLFEEAAHQGCLTSSYLLWESDRRTDVSDPGRCLHSFRKLRDYAAKGCWEAQLSLAKACANANQLGLEVRASSEIVCQLFQASQAVSKQQVFSVQKGLNDTMRYILIDWLVEVATMKDFTSLCLHLTVECVDRYLRRRLVPRYRLQLLGIACMVICTRFISKEILTIREAVWLTDNTYKYEDLVRMMGEIVSALEGKIRVPTVVDYKEVLLTLVPVELRTQHLCSFLCELSLLHTSLSAYAPARLAAAALLLARLTHGQTQPWTTQLWDLTGFSYEDLIPCVLSLHKKCFHDDAPKDYRQVSLTAVKQRFEDKRYGEISQEEVLSYSQLCAALGVTQDSPDPPTFLSTGEIHAFLSSPSGRRTKRKRENSLQEDRGSFVTTPTAELSSQEETLLGSFLDWSLDCCSGYEGDQESEGEKEGDVTAPSGILDVTVVYLNPEQHCCQESSDEEACPEDKGPQDPQALALDTQIPATPGPKPLVRTSREPGKDVTTSGYSSVSTASPTSSVDGGLGALPQPTSVLSLDSDSHTQPCHHQARKSCLQCRPPSPPESSVPQQQVKRINLCIHSEEEDMNLGLVRL
On to B2, for which, in the assay with RBM14-HA, the binding entry is on record as “binds”.

B3: cyclin F(S621G)-flag (protein, UniProt P41002 1-786)
chain: MGSGGVVHCRCAKCFCYPTKRRIRRRPRNLTILSLPEDVLFHILKWLSVEDILAVRAVHSQLKDLVDNHASVWACASFQELWPSPGNLKLFERAAEKGNFEAAVKLGIAYLYNEGLSVSDEARAEVNGLKASRFFSLAERLNVGAAPFIWLFIRPPWSVSGSCCKAVVHESLRAECQLQRTHKASILHCLGRVLSLFEDEEKQQQAHDLFEEAAHQGCLTSSYLLWESDRRTDVSDPGRCLHSFRKLRDYAAKGCWEAQLSLAKACANANQLGLEVRASSEIVCQLFQASQAVSKQQVFSVQKGLNDTMRYILIDWLVEVATMKDFTSLCLHLTVECVDRYLRRRLVPRYRLQLLGIACMVICTRFISKEILTIREAVWLTDNTYKYEDLVRMMGEIVSALEGKIRVPTVVDYKEVLLTLVPVELRTQHLCSFLCELSLLHTSLSAYAPARLAAAALLLARLTHGQTQPWTTQLWDLTGFSYEDLIPCVLSLHKKCFHDDAPKDYRQVSLTAVKQRFEDKRYGEISQEEVLSYSQLCAALGVTQDSPDPPTFLSTGEIHAFLSSPSGRRTKRKRENSLQEDRGSFVTTPTAELSSQEETLLGSFLDWSLDCCSGYEGDQEGEGEKEGDVTAPSGILDVTVVYLNPEQHCCQESSDEEACPEDKGPQDPQALALDTQIPATPGPKPLVRTSREPGKDVTTSGYSSVSTASPTSSVDGGLGALPQPTSVLSLDSDSHTQPCHHQARKSCLQCRPPSPPESSVPQQQVKRINLCIHSEEEDMNLGLVRL
B3: the binding result in the assay with RBM14-HA is recorded as “binds”.
